Laboratory results taken from article PMC3197150.
These are yes or no findings as the source states them, for the method shown. In cells and extracts the contact can be indirect. Some entries that bind do so weakly or less than the wild type. Sequences can lack the tags named with a protein.

By UniProt entry, the sequences of proteins in these tests, tags left out.
UniProt P38873: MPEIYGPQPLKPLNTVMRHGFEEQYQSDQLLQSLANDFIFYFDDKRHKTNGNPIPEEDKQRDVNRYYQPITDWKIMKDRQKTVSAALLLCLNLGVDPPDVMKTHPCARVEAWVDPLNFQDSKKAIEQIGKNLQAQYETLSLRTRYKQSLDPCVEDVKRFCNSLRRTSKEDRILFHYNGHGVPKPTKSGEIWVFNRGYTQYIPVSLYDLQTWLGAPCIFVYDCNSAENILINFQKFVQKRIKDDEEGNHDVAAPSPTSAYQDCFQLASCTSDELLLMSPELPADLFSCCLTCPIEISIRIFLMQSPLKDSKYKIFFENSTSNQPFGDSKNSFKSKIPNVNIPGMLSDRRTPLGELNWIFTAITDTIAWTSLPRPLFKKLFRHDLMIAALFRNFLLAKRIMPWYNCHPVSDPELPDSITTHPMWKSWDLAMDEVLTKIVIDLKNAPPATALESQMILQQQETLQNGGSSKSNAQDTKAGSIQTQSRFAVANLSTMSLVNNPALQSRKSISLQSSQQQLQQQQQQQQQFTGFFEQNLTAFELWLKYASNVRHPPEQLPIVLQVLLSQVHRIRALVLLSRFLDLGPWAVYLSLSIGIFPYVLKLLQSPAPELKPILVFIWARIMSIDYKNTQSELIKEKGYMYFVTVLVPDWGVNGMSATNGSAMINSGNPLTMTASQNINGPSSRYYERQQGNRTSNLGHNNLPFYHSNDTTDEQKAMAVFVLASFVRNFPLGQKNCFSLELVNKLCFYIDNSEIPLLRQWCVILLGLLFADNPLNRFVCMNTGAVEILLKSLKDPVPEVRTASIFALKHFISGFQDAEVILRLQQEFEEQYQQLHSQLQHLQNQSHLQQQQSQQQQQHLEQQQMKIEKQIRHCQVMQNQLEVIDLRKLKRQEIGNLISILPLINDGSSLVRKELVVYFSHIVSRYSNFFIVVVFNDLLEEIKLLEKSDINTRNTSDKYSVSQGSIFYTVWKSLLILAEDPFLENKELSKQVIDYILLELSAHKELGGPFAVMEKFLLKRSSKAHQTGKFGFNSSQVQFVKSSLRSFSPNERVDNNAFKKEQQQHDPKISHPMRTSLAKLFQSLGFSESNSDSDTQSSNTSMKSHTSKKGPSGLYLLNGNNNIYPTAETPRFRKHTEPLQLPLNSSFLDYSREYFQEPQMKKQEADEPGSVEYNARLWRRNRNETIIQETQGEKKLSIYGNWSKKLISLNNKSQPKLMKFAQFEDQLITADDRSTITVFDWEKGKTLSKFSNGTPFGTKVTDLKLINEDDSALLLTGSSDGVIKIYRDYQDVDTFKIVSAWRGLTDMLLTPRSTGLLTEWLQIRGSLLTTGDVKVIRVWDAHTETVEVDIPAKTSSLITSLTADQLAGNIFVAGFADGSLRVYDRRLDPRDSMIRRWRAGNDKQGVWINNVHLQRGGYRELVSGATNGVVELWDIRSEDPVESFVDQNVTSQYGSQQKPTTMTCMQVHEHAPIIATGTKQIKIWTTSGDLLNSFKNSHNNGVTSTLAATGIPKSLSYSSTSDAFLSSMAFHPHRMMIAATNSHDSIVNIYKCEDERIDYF

What was measured:
Experiment in all cases: co-IP; HA-tagged protein immunoprecipitated with HA antibody from lysates of KOG1-FLAG strains (30-40 OD600 units of cells); KOG1-FLAG detected by Western blot with anti-Flag; control IPs from KOG1-FLAG strains without HA-tagged proteins
[1] = molecular target: T1, Hef3p, C-terminally HA-tagged (HEF3-HA) (S. cerevisiae) (UniProt P53978)
T1 sequence: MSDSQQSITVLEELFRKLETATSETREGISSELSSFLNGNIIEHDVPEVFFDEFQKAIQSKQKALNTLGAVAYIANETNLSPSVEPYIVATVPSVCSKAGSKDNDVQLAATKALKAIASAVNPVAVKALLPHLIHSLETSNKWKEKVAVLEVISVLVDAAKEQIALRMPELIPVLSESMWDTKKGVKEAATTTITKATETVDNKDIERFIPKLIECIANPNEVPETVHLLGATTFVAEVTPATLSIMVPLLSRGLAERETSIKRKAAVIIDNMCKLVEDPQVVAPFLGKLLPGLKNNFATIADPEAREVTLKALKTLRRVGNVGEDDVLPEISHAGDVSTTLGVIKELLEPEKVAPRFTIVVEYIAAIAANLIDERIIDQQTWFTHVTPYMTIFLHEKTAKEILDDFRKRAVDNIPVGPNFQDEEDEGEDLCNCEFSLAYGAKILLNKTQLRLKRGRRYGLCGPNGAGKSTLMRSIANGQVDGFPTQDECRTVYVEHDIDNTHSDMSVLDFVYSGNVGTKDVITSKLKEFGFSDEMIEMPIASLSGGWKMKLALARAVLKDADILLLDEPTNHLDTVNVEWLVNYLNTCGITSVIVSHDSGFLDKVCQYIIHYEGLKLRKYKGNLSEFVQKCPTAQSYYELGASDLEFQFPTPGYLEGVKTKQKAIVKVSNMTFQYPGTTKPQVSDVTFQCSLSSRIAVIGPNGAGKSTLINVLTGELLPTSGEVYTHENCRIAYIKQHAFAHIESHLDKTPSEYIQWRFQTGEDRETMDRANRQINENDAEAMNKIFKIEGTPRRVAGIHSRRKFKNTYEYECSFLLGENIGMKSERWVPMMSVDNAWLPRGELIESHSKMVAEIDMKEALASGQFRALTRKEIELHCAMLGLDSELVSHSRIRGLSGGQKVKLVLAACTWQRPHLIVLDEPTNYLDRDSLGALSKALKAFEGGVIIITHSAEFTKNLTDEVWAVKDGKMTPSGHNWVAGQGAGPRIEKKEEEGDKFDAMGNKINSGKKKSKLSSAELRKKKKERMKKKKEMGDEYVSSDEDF

[2] = molecular target: T2, Kap123p, C-terminally HA-tagged (KAP123-HA) (S. cerevisiae) (UniProt P40069)
T2 sequence: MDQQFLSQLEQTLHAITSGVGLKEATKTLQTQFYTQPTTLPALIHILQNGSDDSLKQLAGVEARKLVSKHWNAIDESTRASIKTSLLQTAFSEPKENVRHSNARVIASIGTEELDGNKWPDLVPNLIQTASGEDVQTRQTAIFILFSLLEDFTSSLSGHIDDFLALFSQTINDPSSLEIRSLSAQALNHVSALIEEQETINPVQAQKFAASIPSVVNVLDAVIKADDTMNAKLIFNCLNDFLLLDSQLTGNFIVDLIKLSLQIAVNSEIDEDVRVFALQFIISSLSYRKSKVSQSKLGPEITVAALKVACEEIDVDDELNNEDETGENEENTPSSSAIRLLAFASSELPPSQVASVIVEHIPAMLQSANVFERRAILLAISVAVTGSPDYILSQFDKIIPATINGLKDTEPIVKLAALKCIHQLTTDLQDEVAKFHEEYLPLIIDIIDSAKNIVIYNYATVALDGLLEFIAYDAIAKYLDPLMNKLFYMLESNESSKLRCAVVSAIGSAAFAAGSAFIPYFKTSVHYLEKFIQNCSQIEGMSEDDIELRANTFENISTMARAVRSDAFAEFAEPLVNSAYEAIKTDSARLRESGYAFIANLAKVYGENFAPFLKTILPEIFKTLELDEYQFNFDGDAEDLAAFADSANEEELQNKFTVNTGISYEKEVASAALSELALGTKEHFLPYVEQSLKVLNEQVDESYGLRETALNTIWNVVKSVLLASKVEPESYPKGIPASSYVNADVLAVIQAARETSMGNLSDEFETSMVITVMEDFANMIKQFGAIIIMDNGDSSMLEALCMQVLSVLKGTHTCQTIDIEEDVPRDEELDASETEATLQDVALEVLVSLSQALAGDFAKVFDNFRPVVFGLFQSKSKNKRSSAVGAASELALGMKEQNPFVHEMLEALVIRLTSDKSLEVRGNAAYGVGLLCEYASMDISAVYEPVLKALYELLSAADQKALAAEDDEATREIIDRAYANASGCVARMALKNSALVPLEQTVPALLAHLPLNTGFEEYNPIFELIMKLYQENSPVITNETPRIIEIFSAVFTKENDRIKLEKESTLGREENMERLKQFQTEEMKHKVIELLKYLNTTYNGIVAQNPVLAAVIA

[3] = molecular target: T3, Ksp1p, C-terminally HA-tagged (KSP1-HA) (S. cerevisiae) (UniProt P38691)
T3 sequence: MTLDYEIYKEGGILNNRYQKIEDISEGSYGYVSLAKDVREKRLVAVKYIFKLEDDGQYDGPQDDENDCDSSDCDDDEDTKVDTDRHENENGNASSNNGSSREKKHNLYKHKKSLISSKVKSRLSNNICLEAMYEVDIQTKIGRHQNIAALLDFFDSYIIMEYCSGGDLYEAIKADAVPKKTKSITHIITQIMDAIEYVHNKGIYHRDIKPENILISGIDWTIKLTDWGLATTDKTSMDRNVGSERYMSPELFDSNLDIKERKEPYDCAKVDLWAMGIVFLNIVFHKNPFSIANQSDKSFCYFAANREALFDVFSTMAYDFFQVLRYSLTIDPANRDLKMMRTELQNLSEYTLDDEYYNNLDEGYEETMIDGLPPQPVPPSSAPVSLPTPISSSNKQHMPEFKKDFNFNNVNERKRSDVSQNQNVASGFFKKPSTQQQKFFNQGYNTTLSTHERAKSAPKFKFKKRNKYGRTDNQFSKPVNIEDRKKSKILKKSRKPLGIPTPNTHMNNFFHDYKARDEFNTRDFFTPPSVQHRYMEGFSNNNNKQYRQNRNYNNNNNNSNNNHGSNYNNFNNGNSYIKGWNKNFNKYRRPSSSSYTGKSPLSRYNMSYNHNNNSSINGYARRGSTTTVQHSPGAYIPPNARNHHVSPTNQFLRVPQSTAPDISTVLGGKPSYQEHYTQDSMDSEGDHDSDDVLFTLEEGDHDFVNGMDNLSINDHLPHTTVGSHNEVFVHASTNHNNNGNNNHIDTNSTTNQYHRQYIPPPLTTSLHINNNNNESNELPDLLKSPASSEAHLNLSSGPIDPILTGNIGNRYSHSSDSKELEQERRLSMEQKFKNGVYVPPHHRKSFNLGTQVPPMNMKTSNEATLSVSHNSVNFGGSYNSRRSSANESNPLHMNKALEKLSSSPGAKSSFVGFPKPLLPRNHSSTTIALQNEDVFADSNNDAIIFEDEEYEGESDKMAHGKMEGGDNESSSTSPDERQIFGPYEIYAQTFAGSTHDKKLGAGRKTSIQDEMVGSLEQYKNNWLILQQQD

[4] = molecular target: T4, Mks1p, C-terminally HA-tagged (MKS1-HA) (S. cerevisiae) (UniProt P34072)
T4 sequence: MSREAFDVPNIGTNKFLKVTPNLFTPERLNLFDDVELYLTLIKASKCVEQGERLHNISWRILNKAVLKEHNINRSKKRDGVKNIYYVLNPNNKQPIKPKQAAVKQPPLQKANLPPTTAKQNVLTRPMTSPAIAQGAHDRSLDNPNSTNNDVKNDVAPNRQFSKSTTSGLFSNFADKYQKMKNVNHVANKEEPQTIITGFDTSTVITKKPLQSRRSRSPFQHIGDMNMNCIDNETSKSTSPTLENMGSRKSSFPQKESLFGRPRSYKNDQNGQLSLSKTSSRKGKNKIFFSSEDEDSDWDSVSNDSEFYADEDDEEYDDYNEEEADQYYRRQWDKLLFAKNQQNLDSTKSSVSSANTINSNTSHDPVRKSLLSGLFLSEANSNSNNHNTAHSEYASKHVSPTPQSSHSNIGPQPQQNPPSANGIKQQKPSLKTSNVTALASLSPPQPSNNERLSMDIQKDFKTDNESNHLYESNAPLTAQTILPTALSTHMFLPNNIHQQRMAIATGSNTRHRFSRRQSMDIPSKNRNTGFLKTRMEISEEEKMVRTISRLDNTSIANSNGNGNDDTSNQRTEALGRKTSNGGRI

[5] = molecular target: T5, Uba4p, C-terminally HA-tagged (UBA4-HA) (S. cerevisiae) (UniProt P38820)
T5 sequence: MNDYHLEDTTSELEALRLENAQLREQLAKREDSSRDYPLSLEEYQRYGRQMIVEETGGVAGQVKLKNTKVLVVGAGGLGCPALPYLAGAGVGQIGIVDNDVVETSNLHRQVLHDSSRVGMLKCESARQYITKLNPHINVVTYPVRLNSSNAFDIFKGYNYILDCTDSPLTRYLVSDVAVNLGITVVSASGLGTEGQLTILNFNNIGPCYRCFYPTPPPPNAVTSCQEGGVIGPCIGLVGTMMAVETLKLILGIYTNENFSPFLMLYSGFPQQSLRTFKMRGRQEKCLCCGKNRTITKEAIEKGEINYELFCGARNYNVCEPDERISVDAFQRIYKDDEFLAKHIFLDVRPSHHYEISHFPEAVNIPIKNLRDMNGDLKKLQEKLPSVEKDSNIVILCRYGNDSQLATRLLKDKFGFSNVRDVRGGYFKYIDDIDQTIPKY

Measured: binding

Kog1p, C-terminally FLAG-tagged (KOG1-FLAG) (from UniProt P38873 1-1557)
binds: all assays above
